Data as given in PubChem BioAssay AID1224828 (NIAID, 2016).
Aim: 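Regulators linking TLR4 signalling to p65 nuclear translocation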 (primary screen). System: mouse RAW264.7 G9 macrophage reporter cells (GFP-p65, Tnf promoter-mCherry). Reagent: siRNA pool against mouse genes, 100 nM. Duration: 2 days siRNA transfection, then 40 min LPS before fixation. Challenge: LPS (Salmonella minnesota R595) at 10 ng/ml. Detection: 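Microscopy ratio of nuclear to perinuclear-ring GFP-p65 signal, scaled to the plate median; gene score is the average of two replicate robust z-scores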. Direction: p65 translocation robust z-score: higher = more nuclear NF-kappaB p65 after LPS than the plate median; nuclear/cytoplasmic p65 ratio: higher = more nuclear NF-kappaB p65. Rule for the call: 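Active if robust z is above 3.3 (negative regulators) or below -1.56, the Tlr4 control median (positive regulators); activity score 50 or more; control wells not called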. Meaning of the calls: active = hit (p65 shift raised or lowered); inactive = no clear change.
The whole screen tested about 17,000 reagents; below is a random part of them. 762 of all reagents (4.5%) were called active. 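Active calls include both raised and lowered p65 entry, mostly lowered; wells with fewer than 50 cells lack a z-score.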 Raw values are not corrected between plates. Entries without a mark were called inactive.

Fli1: p65 translocation robust z-score = -0.55; nuclear/cytoplasmic p65 ratio, rep 1 = 1.32; nuclear/cytoplasmic p65 ratio, rep 2 = 1.34; low cell count flag = enough cells to score
Adam1b: p65 translocation robust z-score = 0.56; nuclear/cytoplasmic p65 ratio, rep 1 = 1.71; nuclear/cytoplasmic p65 ratio, rep 2 = 1.75; low cell count flag = enough cells to score
Scn10a: p65 translocation robust z-score = 0.73; nuclear/cytoplasmic p65 ratio, rep 1 = 1.63; nuclear/cytoplasmic p65 ratio, rep 2 = 1.77; low cell count flag = enough cells to score
A730085E03Rik: p65 translocation robust z-score = 0.22; nuclear/cytoplasmic p65 ratio, rep 1 = 1.43; nuclear/cytoplasmic p65 ratio, rep 2 = 1.54; low cell count flag = enough cells to score
Rnf150: p65 translocation robust z-score = 0; nuclear/cytoplasmic p65 ratio, rep 1 = 1.39; nuclear/cytoplasmic p65 ratio, rep 2 = 1.24; low cell count flag = enough cells to score
Sparcl1: p65 translocation robust z-score = -1.6 (active); nuclear/cytoplasmic p65 ratio, rep 1 = 1.38; nuclear/cytoplasmic p65 ratio, rep 2 = 1.27; low cell count flag = enough cells to score
Tacstd2: p65 translocation robust z-score = -0.76; nuclear/cytoplasmic p65 ratio, rep 1 = 1.41; nuclear/cytoplasmic p65 ratio, rep 2 = 1.42; low cell count flag = enough cells to score
Tnfaip6: p65 translocation robust z-score = 0.48; nuclear/cytoplasmic p65 ratio, rep 1 = 1.55; nuclear/cytoplasmic p65 ratio, rep 2 = 1.62; low cell count flag = enough cells to score
Rhbdl1: nuclear/cytoplasmic p65 ratio, rep 1 = 1.37; nuclear/cytoplasmic p65 ratio, rep 2 = 1.13; low cell count flag = fewer than 50 cells per well; well left out of scoring
Slc25a24: p65 translocation robust z-score = -0.46; nuclear/cytoplasmic p65 ratio, rep 1 = 1.31; nuclear/cytoplasmic p65 ratio, rep 2 = 1.23; low cell count flag = enough cells to score
Triap1: nuclear/cytoplasmic p65 ratio, rep 1 = 1.22; nuclear/cytoplasmic p65 ratio, rep 2 = 1.41; low cell count flag = fewer than 50 cells per well; well left out of scoring
Nmnat2: p65 translocation robust z-score = 4.48 (active); nuclear/cytoplasmic p65 ratio, rep 1 = 2.11; nuclear/cytoplasmic p65 ratio, rep 2 = 2.65; low cell count flag = enough cells to score
Glra2: p65 translocation robust z-score = 1.44; nuclear/cytoplasmic p65 ratio, rep 1 = 1.53; nuclear/cytoplasmic p65 ratio, rep 2 = 1.65; low cell count flag = enough cells to score
Speer4d: p65 translocation robust z-score = -0.57; nuclear/cytoplasmic p65 ratio, rep 1 = 1.34; nuclear/cytoplasmic p65 ratio, rep 2 = 1.34; low cell count flag = enough cells to score
Dock2: p65 translocation robust z-score = -1.21; nuclear/cytoplasmic p65 ratio, rep 1 = 1.33; nuclear/cytoplasmic p65 ratio, rep 2 = 1.21; low cell count flag = enough cells to score
Slc13a4: p65 translocation robust z-score = -0.72; nuclear/cytoplasmic p65 ratio, rep 1 = 1.2; nuclear/cytoplasmic p65 ratio, rep 2 = 1.17; low cell count flag = enough cells to score
Gm14461: p65 translocation robust z-score = 0.32; nuclear/cytoplasmic p65 ratio, rep 1 = 1.61; nuclear/cytoplasmic p65 ratio, rep 2 = 1.57; low cell count flag = enough cells to score
Taf13: p65 translocation robust z-score = 1.11; nuclear/cytoplasmic p65 ratio, rep 1 = 1.59; nuclear/cytoplasmic p65 ratio, rep 2 = 1.76; low cell count flag = enough cells to score
Got1: nuclear/cytoplasmic p65 ratio, rep 1 = 1.42; nuclear/cytoplasmic p65 ratio, rep 2 = 1.49; low cell count flag = fewer than 50 cells per well; well left out of scoring
Cdca7l: p65 translocation robust z-score = 0.02; nuclear/cytoplasmic p65 ratio, rep 1 = 1.54; nuclear/cytoplasmic p65 ratio, rep 2 = 1.9; low cell count flag = enough cells to score
C9: p65 translocation robust z-score = -1.36; nuclear/cytoplasmic p65 ratio, rep 1 = 1.42; nuclear/cytoplasmic p65 ratio, rep 2 = 1.41; low cell count flag = enough cells to score
Ccnk: p65 translocation robust z-score = 0.22; nuclear/cytoplasmic p65 ratio, rep 1 = 1.46; nuclear/cytoplasmic p65 ratio, rep 2 = 1.44; low cell count flag = enough cells to score
Mrps27: p65 translocation robust z-score = -0.41; nuclear/cytoplasmic p65 ratio, rep 1 = 1.74; nuclear/cytoplasmic p65 ratio, rep 2 = 1.51; low cell count flag = enough cells to score
Wipf2: p65 translocation robust z-score = -1.9 (active); nuclear/cytoplasmic p65 ratio, rep 1 = 1.14; nuclear/cytoplasmic p65 ratio, rep 2 = 1.32; low cell count flag = enough cells to score
Spata1: p65 translocation robust z-score = 0.46; nuclear/cytoplasmic p65 ratio, rep 1 = 1.38; nuclear/cytoplasmic p65 ratio, rep 2 = 1.3; low cell count flag = enough cells to score
Cpne8: p65 translocation robust z-score = 0.1; nuclear/cytoplasmic p65 ratio, rep 1 = 1.66; nuclear/cytoplasmic p65 ratio, rep 2 = 1.72; low cell count flag = enough cells to score
Tcp1: p65 translocation robust z-score = 0.1; nuclear/cytoplasmic p65 ratio, rep 1 = 1.52; nuclear/cytoplasmic p65 ratio, rep 2 = 1.55; low cell count flag = enough cells to score

Records listed above with an active call:
Sparcl1: p65 translocation robust z-score = -1.6 (active); nuclear/cytoplasmic p65 ratio, rep 1 = 1.38; nuclear/cytoplasmic p65 ratio, rep 2 = 1.27; low cell count flag = enough cells to score
Nmnat2: p65 translocation robust z-score = 4.48 (active); nuclear/cytoplasmic p65 ratio, rep 1 = 2.11; nuclear/cytoplasmic p65 ratio, rep 2 = 2.65; low cell count flag = enough cells to score
Wipf2: p65 translocation robust z-score = -1.9 (active); nuclear/cytoplasmic p65 ratio, rep 1 = 1.14; nuclear/cytoplasmic p65 ratio, rep 2 = 1.32; low cell count flag = enough cells to score
